# In PubChem BioAssay AID504847 (National Center for Advancing Translational Sciences (NCATS), 2011):
# The chains behind the UniProt entries cited, without tags or fusion partners. Where a name states a change or a piece, a line headed by the entry shows the natural chain unless it says otherwise.
# UniProt P11473: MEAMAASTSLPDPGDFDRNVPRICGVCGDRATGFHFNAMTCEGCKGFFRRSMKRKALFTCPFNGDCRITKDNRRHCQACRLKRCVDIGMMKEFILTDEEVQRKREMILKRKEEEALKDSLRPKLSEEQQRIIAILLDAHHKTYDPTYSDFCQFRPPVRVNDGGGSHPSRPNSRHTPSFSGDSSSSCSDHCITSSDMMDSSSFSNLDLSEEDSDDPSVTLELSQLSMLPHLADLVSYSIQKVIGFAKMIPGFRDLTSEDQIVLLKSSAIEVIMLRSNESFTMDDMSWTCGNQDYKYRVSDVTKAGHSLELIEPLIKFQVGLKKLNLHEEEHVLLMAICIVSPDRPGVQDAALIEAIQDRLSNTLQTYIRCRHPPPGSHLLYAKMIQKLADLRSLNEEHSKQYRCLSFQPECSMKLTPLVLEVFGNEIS
# Where “and” joins values, the source holds several entries; their conditions need not be identical. Equal values may be shown once. In all, about 400,000 compounds went through this assay and about 3,700 (0.93%) were called active. This list was built around the results that the source calls inconclusive (neither active nor inactive); the mix of calls is not that of the screen. Calls come from the whole dose curve; as a rule, active = well fitted inhibition curve with a large enough effect; inconclusive = small, poorly fitted or top-dose-only effect, or another doubt; inactive = no such curve, though single readings can be large or run the other way. A potency beside an inconclusive call is a rough fit, not a confirmed value.
# Biological target: Vitamin D3 receptor (Homo sapiens) (UniProt P11473)
# Assay: Inhibitors of the vitamin D receptor (VDR): qHTS
# Conditions: VDR-SRC2-3 peptide fluorescence polarization, 2 h; max response, negative = inhibition: active compounds read low
# In short: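 FP read-out; VDR + SRC2-3 coactivator peptide; 23 nl compound by pintool; 2 h RT incubation; reagents held at 4 deg C, protected from light.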
# % is set by controls: 0 for no effect and ±100 for the full control effect; potency is the fitted concentration of half-maximal effect.
Compound,"max response, negative = inhibition",Potency
CCCc1cc(C(=O)Nc2cccc(Cl)c2)no1,inactive: -6.49%,–
CCN(CC)c1nn2c(=O)c(C(=O)NCc3cccc(C)c3)cnc2s1,inactive: 11.6%,–
COc1ccc(-c2ccc(C(=S)N3CCN(C(C)=O)CC3)o2)cc1,–,active: 79.4 µM
O=S1(=O)CC(O)C(NCc2ccco2)C1 (stereo not given),–,"inconclusive: 35.5 µM [inhibitor, partial curve, poor fit]"
COc1cccc(-c2cncnc2NCc2ccccc2OC)c1,–,"inconclusive: 89.1 µM [inhibitor, single point]"
Cc1ccc(/C=C2/NC(=O)N(Cc3ccccc3)C2=O)o1,–,active: 89.1 µM
COc1ccc(C(=O)Cn2c(=O)oc3ccc(C)cc32)cc1,–,"inconclusive: 89.1 µM [inhibitor, partial curve, poor fit]"
Cc1cccc(NC(=O)c2sc3nc4c(c(-c5cccs5)c3c2N)CN(C)CC4)c1,–,"inconclusive: 89.1 µM [inhibitor, single point]"
O=C1NC(c2cccs2)Nc2sc3c(c21)CCCC3 (stereo not given),inactive: 0.434%,–
CC(C)c1ccc(N(C(=O)c2snc(C(N)=O)c2N)C(C(=O)NCC2CCCO2)c2ccc(N(C)C)cc2)cc1 (stereo not given),inactive: 2.59%,–
Cc1nn(CC(=O)Nc2cc(F)ccc2F)c(=O)c2cccn12,inactive: 19.9%,–
CC(C)(C)C(=O)NC(=S)Nc1ccccc1F,–,"inconclusive: 11.2 µM [inhibitor, full curve]"
CCCc1nn2c(=O)cc(COc3ccc(NC(=O)c4ccco4)cc3)nc2s1,inactive: -24.9%,–
O=c1c(O)cc(C2Oc3cc(O)cc(O)c3CC2O)cc2c(C3Oc4cc(O)cc(O)c4CC3O)cc(O)c(O)c12 (stereo not given),–,active: 3.55 µM
CCCCCc1c2c(cc(O)c1C(=O)O)OC(=O)c1cc(C(=O)CCCC)c(OC)cc1O2,–,active: 39.8 µM and active: 79.4 µM
CCC(C)[C@H]1CNCCN1CCC12CC3CC(CC(C3)C1)C2 (stereo not given in full),inactive: -8%,–
COc1ccc(C(=O)/C=C2\C(=O)Nc3ccc(Br)cc32)cc1,–,"inconclusive: 50.1 µM [inhibitor, partial curve, poor fit]"
CN(C(=O)COC(=O)c1cccc(F)c1)c1ccccc1,–,"inconclusive: 79.4 µM [inhibitor, partial curve]"
C/C=C\C=C\C(=O)N1CC2(CC(c3cccc(NC(=O)CC)c3)=NO2)C[C@H]1C(N)=O (stereo not given in full),–,"inconclusive: 79.4 µM [inhibitor, single point]"
Cc1cccc(N=Nc2cnc(N)s2)c1,–,"inconclusive: 35.5 µM [inhibitor, partial curve, poor fit]"
CCCCCC(O)CCCC(=O)O (stereo not given),inactive: -0.929% [middle of 4 runs],–
Cc1cc(C)n(-c2nc(NCC(C)O)c3c4c(sc3n2)COC(C)(C)C4)n1 (stereo not given),inactive: 5.19%,–
COc1ccc([N+](=O)[O-])c(S(=O)(=O)c2ccc(Cl)cc2)n1,–,active: 31.6 µM
O=C(NC1CCCCCC1)C(=S)N1CCOCC1,–,active: 17.8 µM

Compound,"max response, negative = inhibition",Potency
C/C(=N/NC(=O)c1ccncc1)C1=C(O)CC(C)(C)CC1=O,–,"inconclusive: 70.8 µM [inhibitor, partial curve, poor fit]"
O=[N+]([O-])c1ccc(O)c(NC(=S)Nc2ccccc2)c1,–,"inconclusive: 89.1 µM [inhibitor, single point]"
O=C(O)C1Nc2ccccc2C2C=CCC12 (stereo not given),–,"inconclusive: 56.2 µM [inhibitor, partial curve, poor fit]"
COc1cc(C(C2C(=O)CC(C)(C)CC2=O)C2C(=O)CC(C)(C)CC2=O)ccc1O,–,"inconclusive: 56.2 µM [inhibitor, partial curve, poor fit]"
O=C(N/N=C/c1ccc(N2CCOCC2)cc1)c1ccc(NS(=O)(=O)c2cccs2)cc1,inactive: -12.8%,–
COc1ccc(NS(=O)(=O)c2cc([N+](=O)[O-])ccc2NN=Cc2ccccc2OCC(=O)O)cc1,–,"inconclusive: 100 µM [inhibitor, single point]"
O=C(/C=C/c1ccc(Br)o1)Nc1nccs1,inactive: -9.1%,–
O=C1OC(c2ccccc2)/C(=C(/O)c2ccc(Cl)cc2)C1=O (stereo not given),–,active: 44.7 µM
COC(=O)C/C=C1\c2ccc3c(c2[C@@H](OC)[C@@H]1C)OCO3,inactive: -3.26%,–
Cc1nc(N2CCCCC2)sc1C(=O)c1ccc(SCCO)c([N+](=O)[O-])c1,–,"inconclusive: 17.8 µM [inhibitor, partial curve]"
O=C(O)c1ccccc1N/N=C/c1cc(Br)cc(Br)c1O,–,"inconclusive: 89.1 µM [inhibitor, single point]"
O=C(CSc1nc2ncc(Cl)cc2[nH]1)N1CCC(Cc2ccccc2)CC1,inactive: -22.6%,–
COc1ccc(-c2nn(C)c3sc(C(=O)Nc4cc(OC)c(OC)c(OC)c4)cc23)cc1OC,inactive: 0.175%,–
O=C(O)CSc1nnc(CNc2ccc(Cl)cc2)n1Cc1ccccc1,–,"inconclusive: 28.2 µM [inhibitor, full curve, poor fit]"
COc1nc(N/N=C/c2ccc(-c3ccccc3[N+](=O)[O-])o2)nc(N2CCOCC2)n1,–,"inconclusive: 100 µM [inhibitor, single point]"
Cc1[nH][nH]c(=O)c1C(c1cc(Br)ccc1O)c1c(C)[nH][nH]c1=O,–,"inconclusive: 89.1 µM [inhibitor, partial curve, poor fit]"
CCCn1c(CCl)nc2cc(S(=O)(=O)N3CCOCC3)ccc21,inactive: 2.7%,–
Cc1ccc2c(c1)c1nnc(SCC(=O)Nc3ccc(N(C)C)cc3)nc1n2CC(=O)O,–,"inconclusive: 89.1 µM [inhibitor, single point]"
COc1cc(C2c3c(oc4ccccc4c3=O)C(=O)N2Cc2ccccc2Cl)ccc1O (stereo not given),–,"inconclusive: 100 µM [inhibitor, single point]"
COc1cc(CCC(=O)NCc2ccc3c(c2)CCN3C(=O)c2cccc(C)c2)cc(OC)c1OC,inactive: 20.9%,–
CCCCCCCCCCCCN1[C@@H](CC(=O)O)c2cc(F)ccc2S1(=O)=O,–,"inconclusive: 100 µM [inhibitor, single point]"
CN(C)c1ncnc2ccc(-c3cccnc3)cc12,–,"inconclusive: 39.8 µM [inhibitor, partial curve, poor fit]"
O=C1S/C(=C\c2ccc(O)c([N+](=O)[O-])c2)C(=O)N1c1ccccc1Cl,–,"inconclusive: 89.1 µM [inhibitor, partial curve, poor fit]"
CCN1CCN(S(=O)(=O)c2ccc(Cl)c(C(=O)Nc3ccccc3N3CCOCC3)c2)CC1,–,"inconclusive: 79.4 µM [inhibitor, single point]"

# Looked up by compound from above, 4 records:
Compound,"max response, negative = inhibition",Potency
COc1ccc(-c2nn(C)c3sc(C(=O)Nc4cc(OC)c(OC)c(OC)c4)cc23)cc1OC,inactive: 0.175%,–
O=C(O)CSc1nnc(CNc2ccc(Cl)cc2)n1Cc1ccccc1,–,"inconclusive: 28.2 µM [inhibitor, full curve, poor fit]"
CCN1CCN(S(=O)(=O)c2ccc(Cl)c(C(=O)Nc3ccccc3N3CCOCC3)c2)CC1,–,"inconclusive: 79.4 µM [inhibitor, single point]"
Cc1nc(N2CCCCC2)sc1C(=O)c1ccc(SCCO)c([N+](=O)[O-])c1,–,"inconclusive: 17.8 µM [inhibitor, partial curve]"

# The list goes on:

Compound,"max response, negative = inhibition",Potency
Cc1ccc(C(=O)CCNc2ccccc2)o1,inactive: 6.93%,–
COc1ccc(C(=O)Nc2ccc(NC(=O)c3cccs3)cc2)cc1Cl,–,"inconclusive: 35.5 µM [inhibitor, single point]"
O=C(c1ccc2c(=O)n(Cc3ccco3)c(=S)[nH]c2c1)N1CCN(c2ccccc2)CC1,inactive: -10.7%,–
Cc1ccccc1N(CC(=O)NCc1ccc2c(c1)OCO2)C(=O)C1CSC(=O)C1 (stereo not given),inactive: 1.78%,–
COc1ccccc1CC(=O)c1ccc(OCc2ccccc2)cc1,inactive: -2.89%,–
N#CCCCS(=O)(=O)c1nnnn1-c1ccc(F)cc1Br,–,active: 44.7 µM
C(=N\NC1=Nc2cccc3cccc1c23)/c1cccnc1,inactive: 5.8%,–
Clc1ccc(OCCn2ccnc2)c(Cl)c1,inactive: -8.33%,–
CCc1ccccc1S(=O)(=O)Cc1ccc(C(=O)NCCc2ccccc2)o1,–,"inconclusive: 39.8 µM [inhibitor, partial curve, poor fit]"
Cc1nn(CC(=O)NCCc2ccc(Cl)cc2)c(=O)c2cccn12,–,"inconclusive: 39.8 µM [inhibitor, single point]"
C[C@@]12C(=O)Nc3ccc(Cl)cc3C(=O)N1[C@H]1c3ccccc3OC[C@@H]1[C@@H]2c1ccccc1,–,"inconclusive: 1.26 µM [inhibitor, full curve, poor fit]"
Cc1cc(C)n(CC(=O)O)c(=O)c1[N+](=O)[O-],–,"inconclusive: 89.1 µM [inhibitor, partial curve, poor fit]"
COc1ccc(/C(C)=N/Nc2ccc(C(=O)O)cc2)c(OC)c1,inactive: -9.66%,–
CCCCCCC(=O)N1C/C=C\C(c2ccc(OC)cc2)N(Cc2ccc(F)cc2)C(=O)[C@H]1Cc1ccccc1 (stereo not given in full),inactive: -6.74%,–
CCC1(C)NC(=O)N(CC(=O)N2CCN(c3cccc(Cl)c3)CC2)C1=O (stereo not given),–,"inconclusive: 89.1 µM [inhibitor, single point]"
CC(=O)N1CC[n+]2c(-c3ccc(Cl)cc3)csc21,–,active: 20 µM
Cc1ccc2c(c1)N(C(=O)N1CCC(C(=O)NCCC3=CCCCC3)CC1)CC(C)O2 (stereo not given),inactive: 18.4%,–
COc1cccc(Cn2cnc3c(N)c(C)c(C)cc32)c1,–,"inconclusive: 50.1 µM [inhibitor, partial curve, poor fit]"
Oc1c(Cl)cc(CN2CCOCC2)c2cccnc12,–,"inconclusive: 56.2 µM [inhibitor, partial curve, poor fit]"
CC(C)(C)c1cc(C(=O)CCN2CCOCC2)cc(C(C)(C)C)c1O,–,active: 50.1 µM
NC(=O)SCC(=O)Nc1cccc(Cl)c1,–,"inconclusive: 56.2 µM [inhibitor, partial curve, poor fit]"
CCN(CC)C(=O)CSc1nc2sc3c(c2c(=O)n1CCCOC)CCC3,–,"inconclusive: 56.2 µM [inhibitor, partial curve, poor fit]"
